Laboratory results: PubChem BioAssay AID504467 (National Center for Advancing Translational Sciences (NCATS), 2011)
Hit rate of the full screen: of about 330,000 compounds, about 7,700 (2.3%) were called active. Inconclusive means that the source gave no clear call. Such entries were picked first, then a sample of the others. The call rests on the fitted dose curve; in most records, active means well fitted inhibition curve with a large enough effect; inconclusive means small, poorly fitted or top-dose-only effect, or effect the other way; inactive means flat fitted curve, though single readings scatter. Potencies of inconclusive entries are doubtful fits and often do not repeat.

assay: qHTS screen for small molecules that inhibit ELG1-dependent DNA repair in human embryonic kidney (HEK293T) cells expressing luciferase-tagged ELG1; conditions: HEK293T ELG1-luciferase reporter, luminescence, 16 h, DNA damage induced by 5-fluorouridine; activity change, negative = inhibition: at 46.1 µM (top of the series); further: nearly all actives have a fitted effect of over 55% in size
Procedure, shortened: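 Overnight (16 hr) co-exposure of 2,000 cells/well to 5-fluorouridine and compound at 37 °C preceded detection. Luciferase was quantified via ONE-Glo luminescence; loss of signal denotes inhibition.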
On the % scale 0 is the no-effect control and ±100 the full control effect; potency means the concentration at half of the fitted maximal effect.

| Compound | Potency | activity change, negative = inhibition |
| --- | --- | --- |
| CCOC(=O)c1cc(-c2ccc(OC)cc2)n[nH]1 | inconclusive: 23.1 µM [activator, partial curve] |  |
| Cc1cc(OCCCn2ccnc2)ccc1[N+](=O)[O-] |  | inactive: 2.1% |
| CC1CCCCN1S(=O)(=O)c1ccc(C(=O)N2CCOCC2)cc1 (centres undefined) |  | inactive: 18.7% |
| COc1ccc2c(c1)c(C(C)=O)c(C)n2-c1ccc(C(C)=O)cc1 | inconclusive: 4.61 µM [inhibitor, full curve, poor fit] |  |
| COc1ccc(-c2cc(C(F)F)n3ncc(C(=O)NCCCN4CCCC4=O)c3n2)cc1 | active: 6.51 µM |  |
| Cc1cccc(-c2nc(S(=O)(=O)c3ccc(F)cc3)c(NCCCN3CCOCC3)o2)c1 | inconclusive: 29.1 µM [inhibitor, single point] |  |
| Cc1ccccc1-n1nc2c(c1NC(=O)c1cc3ccccc3oc1=O)CS(=O)C2 (centres undefined) | inconclusive: 29.1 µM [inhibitor, single point] |  |
| NS(=O)(=O)c1ccc(N/C=C\C(=O)c2ccc(F)cc2)cc1 | inconclusive: 5.8 µM [activator, partial curve] |  |
| O=C(N/N=C\c1cn[nH]c1-c1ccccc1)c1cccnc1 |  | inactive: 2.09% |
| Cc1ccccc1CCNC(=O)C1CCC(=O)N(CCc2cccc(F)c2)C1 (centres undefined) | inconclusive: 1.16 µM [activator, partial curve] |  |
| Cc1ccc(-c2cc(C(F)F)n3ncc(C(=O)N4CCCc5ccccc54)c3n2)cc1 |  | inactive: -27.5% |
| COc1ccc(S(=O)(=O)N2CCC(C(=O)Nc3cc(Cl)ccc3N3CCOCC3)CC2)cc1OC | inconclusive: 29.1 µM [inhibitor, single point] |  |
| O=C(Nc1cc(C(F)(F)F)ccc1N1CCCCC1)c1ccco1 |  | inactive: -10.1% |
| Cc1ccc2c(c1)C(C)CC(C)(C)N2C(=O)NC1CCCCC1 (centres undefined) | inconclusive: 18.4 µM [activator, single point] |  |
| CCCCC[C@H]1CN(C2CCCCC2)C(=O)[C@@H]1CC(=O)NCc1ccc(OC)cc1 | inconclusive: 2.06 µM [inhibitor, partial curve, poor fit] |  |
| NC(=O)c1ccsc1NC(=O)COC(=O)/C=C/c1ccccc1[N+](=O)[O-] | inconclusive: 20.6 µM [inhibitor, partial curve] |  |
| Cc1ccc(NC(=O)c2cc3ccccc3oc2=N)cc1 | inconclusive: 0.517 µM [activator, full curve] |  |
| O=C(Nc1ccccc1Cl)N1CCN(c2ccc3nnc(-c4ccc(F)cc4)n3n2)CC1 | active: 20.6 µM |  |
| CCN(CC)CCOC(=O)c1ccc(NC(=O)c2cn(-c3ccccc3)nc2-c2cccs2)cc1 | inconclusive: 18.3 µM [activator, partial curve] |  |
| CCn1ncc(Br)c1C(=O)NC1CCCCCCC1 |  | inactive: 5.87% |
| O=C(COC(=O)CNC(=O)c1ccc(Br)o1)Nc1ccc2c(c1)OCCO2 |  | inactive: 14.2% |
| Cc1ccc(SCC(=O)OCC(=O)NCCc2ccccc2)cc1 | inconclusive: 32.6 µM [activator, partial curve, poor fit] |  |
| Cc1ccc(S(=O)(=O)c2cc3c(=O)n4cccc(C)c4nc3n(CC3CCCO3)c2=N)cc1C (centres undefined) |  | inactive: 1.79% |

| Compound | Potency | activity change, negative = inhibition |
| --- | --- | --- |
| N#Cc1ccccc1CSc1nc(N)cc(N)n1 |  | inactive: -1.22% |
| O=C(Cn1nc(-c2ccc(Cl)cc2)c2ccccc2c1=O)Nc1cccnc1 | inconclusive: 23.1 µM [inhibitor, single point] |  |
| O=C(CN(C(=O)Cn1nnc(-c2ccccc2F)n1)c1cccc2c1CCCC2)NCc1ccccc1 | inconclusive: 16.4 µM [inhibitor, partial curve] |  |
| Cc1ccc(NC(=O)N2CCCc3ccccc32)cc1 |  | inactive: 11.3% |
| Cc1ccc(C)c(S(=O)(=O)N2CCN(C(=O)CCNC(=O)c3ccc(Br)cc3)CC2)c1 | inconclusive: 9.2 µM [inhibitor, single point] |  |
| CN(C)S(=O)(=O)c1cccc(COC(=O)Cc2c(F)cccc2Cl)c1 |  | inactive: -4.17% |
| CCc1ccc(C(=O)COC(=O)c2ccc(Cl)nc2)cc1 | inconclusive: 20.6 µM [activator, single point] |  |
| O=C(Nc1ccccc1)c1cc([N+](=O)[O-])ccc1NCc1cccnc1 | inconclusive: 20.6 µM [inhibitor, single point] |  |
| O=C(COc1ccccc1Cc1ccccc1)Nc1cccnc1 | inconclusive: 29.1 µM [inhibitor, partial curve, poor fit] |  |
| CCOc1ccc(NC(=O)CN(C)C(=O)c2ccc3c(c2)C(=O)N(CCC(C)C)C3=O)cc1OCC |  | inactive: -26.5% |
| COc1cccc(-c2sc3ccc(OC)cc3c2C#CC(C)(C)O)c1 | inconclusive: 16.4 µM [inhibitor, partial curve, poor fit] |  |
| O=C(COc1ccc(Br)cc1CO)Nc1ccccc1 | inconclusive: 23.1 µM [activator, partial curve, poor fit] |  |
| COc1cc2c(cc1NC(=O)/C=C/c1cc(OC)c(OC)c(OC)c1)oc1ccccc12 | active: 5.8 µM |  |
| COC(=O)[C@@]1(Cc2ccc(OC)cc2)[C@H]2c3cc(C(=O)N(C)C)n(Cc4ccc(OC(F)(F)F)cc4)c3C[C@H]2CN1C(=O)c1ccccc1 | inconclusive: 14.6 µM [inhibitor, partial curve, poor fit] |  |
| Cc1cc(OCC(=O)C(C)(C)C)c2c(C)c(C)c(=O)oc2c1 | inconclusive: 20.6 µM [activator, partial curve, poor fit] |  |
| O=S(=O)(O)Oc1c[nH]c2ccccc12 | inconclusive: 20 µM [activator, partial curve, poor fit] |  |
| CCSc1nnc(NC(=O)c2cccc3ccccc23)s1 |  | inactive: 16.4% |
| CC(C)Cc1ccc(C(C)NC(=O)Cc2ccc(S(=O)(=O)N3CCOCC3)s2)cc1 (centres undefined) | inconclusive: 23.1 µM [inhibitor, single point] |  |
| COc1ccc(-c2cn3c(C)c(C(=O)N4CCN(c5ccccc5F)CC4)sc3n2)cc1 | inconclusive: 20.6 µM [inhibitor, single point] |  |
| Cc1ccc(NC(=O)CSCC(=O)Nc2ccccc2C(=O)NC2CC2)cc1 |  | inactive: 15.7% |
| Cc1cccc(C(=O)OCC(=O)N2CCCCCC2)c1O | inconclusive: 13 µM [activator, partial curve] |  |
| Cc1ccc(Cl)cc1NC(=O)c1cc(NC(=O)CCCC(=O)O)ccc1N1CCCCC1 |  | inactive: 15.4% |
| O=C(c1ccc(Cl)c(S(=O)(=O)NCc2ccco2)c1)N1CCN(c2ccc(F)cc2)CC1 | inconclusive: 20.6 µM [inhibitor, single point] |  |

| Compound | Potency | activity change, negative = inhibition |
| --- | --- | --- |
| COc1ccc(C)cc1NC(=O)c1sc2nc(C)nc(N3CCOCC3)c2c1C | inconclusive: 16.4 µM [inhibitor, partial curve] |  |
| CC1(C)CC(=O)C=C(NCC(=O)O)C1 | inconclusive: 29.1 µM [activator, partial curve, poor fit] |  |
| Cc1nc(-c2ccc(NC(=O)CC(C)C)cc2)cs1 | inconclusive: 8.2 µM [activator, partial curve] |  |
| C/C(=N\Nc1ccccn1)c1ccc2c(c1)OCO2 | inconclusive: 18.3 µM [activator, partial curve] |  |
| CCc1cc2ccc(C)cc2nc1SCC(=O)c1ccc(NC(C)=O)cc1 |  | inactive: 2.26% |
| COC(=O)C1CCN(Cc2cc(=O)oc3cc(OC)ccc23)CC1 | inconclusive: 29.1 µM [activator, single point] |  |
| COc1ccc2cc3cc(C(=O)N4CCCC(C)C4)oc3nc2c1 (centres undefined) | inconclusive: 9.2 µM [activator, partial curve] |  |
| C/C(=N\NC1=NCCN1)c1ccc(N)c([N+](=O)[O-])c1 | inconclusive: 29.1 µM [activator, single point] |  |
| Fc1cc(Br)ccc1COc1ccc(-c2nnco2)cc1 | inconclusive: 16.4 µM [activator, partial curve] |  |
| O=C(Nc1nc(C2C3CC4CC(C3)CC2C4)cs1)c1cc2cc([N+](=O)[O-])ccc2oc1=O (centres undefined) |  | inactive: 14.2% |
| CCCn1c(N)c(C(=O)CSc2ncn[nH]2)c(=O)n(C)c1=O |  | inactive: 11.4% |
| Cn1cccc1C(=O)OCc1csc(-c2ccccc2)n1 | inconclusive: 0.58 µM [activator, full curve] |  |
| O=C(Nc1ccc(N2CCOCC2)cc1)c1cccc(S(=O)(=O)N2CCCCC2)c1 | active: 16.4 µM |  |
| COc1nc(-c2ccccc2)ncc1S(=O)(=O)c1ccccc1 |  | inactive: -18.1% |
| Cc1cccn2c(=O)nc(SCC(=O)Nc3ccc4c(c3)OCCO4)nc12 |  | inactive: 4.54% |
| O=C(CN1C(=O)c2cccnc2Oc2ccc(Cl)cc21)NC1CCCC1 | inconclusive: 11.6 µM [activator, partial curve, poor fit] |  |
| Cc1cccc(Nc2nc(N)nc(CN3CCC(C)CC3)n2)c1C | inconclusive: 32.6 µM [activator, partial curve, poor fit] |  |
| O=C(Nc1cccc(F)c1)Nc1ccc2c(c1)C(=O)OC2 | inconclusive: 23.1 µM [activator, single point] |  |
| CC(C)Cc1cc(C(=O)NCCc2ccccc2)no1 | inconclusive: 8.2 µM [activator, partial curve] |  |
| COc1ccc(NC(=O)c2cc3c(CO)cnc(C)c3oc2=Nc2cccc(C)c2)c(OC)c1 |  | inactive: -23.9% |
| COc1ccc(N2CCN(C(CNC(=O)C(=O)NCc3cccs3)c3ccco3)CC2)cc1 (centres undefined) | inconclusive: 23.1 µM [inhibitor, single point] |  |
| CCCCn1c(NS(=O)(=O)c2ccc(C)cc2)c(S(=O)(=O)c2ccccc2)c2nc3ccccc3nc21 | inconclusive: 4.11 µM [inhibitor, partial curve, poor fit] |  |
| COc1ccc(S(=O)(=O)N(C)c2ccc(C(=O)NCc3ccccn3)cc2)cc1OC |  | inactive: -2.53% |

Part of the list above, with each value named.
CCSc1nnc(NC(=O)c2cccc3ccccc23)s1
  activity change, negative = inhibition: inactive: 16.4%
CC(C)Cc1ccc(C(C)NC(=O)Cc2ccc(S(=O)(=O)N3CCOCC3)s2)cc1 (centres undefined)
  Potency: inconclusive: 23.1 µM [inhibitor, single point]
COc1ccc(-c2cn3c(C)c(C(=O)N4CCN(c5ccccc5F)CC4)sc3n2)cc1
  Potency: inconclusive: 20.6 µM [inhibitor, single point]
Cc1ccc(NC(=O)CSCC(=O)Nc2ccccc2C(=O)NC2CC2)cc1
  activity change, negative = inhibition: inactive: 15.7%
